Test results reported in patent US20180263964A1 (MINERVA BIOTECHNOLOGIES, published 2018).
No constants are given. Whether binding was seen depends on the method and setting. In cells and extracts the contact can be indirect. Some binding calls cover weakened binding; strength is not graded here.

Chains of the proteins cited; added tags and fusions are not shown. Residues count along the entry.
UniProt P15941, residues 1110-1255: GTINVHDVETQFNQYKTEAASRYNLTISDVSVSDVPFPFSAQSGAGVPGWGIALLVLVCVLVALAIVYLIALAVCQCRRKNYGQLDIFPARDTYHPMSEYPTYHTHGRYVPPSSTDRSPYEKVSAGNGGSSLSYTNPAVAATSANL

Tests used:
[1] = molecular target: MUC1* (human) (UniProt P15941); assay: co-immunoprecipitation with Ab5 from stem cell and T47D lysates, Western blot
[2] = molecular target: MUC1* (human) (UniProt P15941); assay: co-immunoprecipitation with Ab5 from T47D cancer cell lysate, Western blot
[3] = molecular target: MUC1* (human) (UniProt P15941); assay: co-immunoprecipitation with Ab5 from human iPS and HES cell lysates, Western blot for NME7

Measured: binding

B1: NME7-X1 (ligand)
chain: MMMLSRKEALDFHVDHQSRPFFNELIQFITTGPIIAMEILRDDAICEWKRLLGPANSGVARTDASESIRALFGTDGIRNAAHGPDSFASAAREMELFFPSSGGCGPANTAKFTNCTCCIVKPHAVSEGLLGKILMAIRDAGFEISAMQMFNMDRVNVEEFYEVYKGVVTEYHDMVTEMYSGPCVAMEIQQNNATKTFREFCGPADPEIARHLRPGTLRAIFGKTKIQNAVHCTDLPEDGLLEVQYFFKILDN
notes: Alternative splice isoform of NME7; In the blots it is the endogenous 30 kDa species of cell lysates; also called human NME7-X1; 30 kDa NME7-reactive species
binds: [1] | [2] | [3]

B2: NME7AB (ligand)
chain: MEKTLALIKPDAISKAGEIIEIINKAGFTITKLKMMMLSRKEALDFHVDHQSRPFFNELIQFITTGPIIAMEILRDDAICEWKRLLGPANSGVARTDASESIRALFGTDGIRNAAHGPDSFASAAREMELFFPSSGGCGPANTAKFTNCTCCIVKPHAVSEGLLGKILMAIRDAGFEISAMQMFNMDRVNVEEFYEVYKGVVTEYHDMVTEMYSGPCVAMEIQQNNATKTFREFCGPADPEIARHLRPGTLRAIFGKTKIQNAVHCTDLPEDGLLEVQYFFKILDN
notes: In the co-immunoprecipitations and Western blots this is the endogenous 33 kDa species of cell lysates; also called human NME7-AB; 33 kDa NME7-reactive species
binds: [1] | [2] | [3]
